Results as given in the supplement of paper PMC12578635.
Some of the results follow. No stated cut-off is given here; in the data, active = 150% or more and inactive = the rest. Single values are uncertain, as repeats are few or missing.

System: Staphylococcus aureus JE2-lux inside RAW 264.7 macrophages
Assay: intracellular bacterial bioluminescence relative to DMSO vehicle; higher = higher intracellular bacterial metabolic activity
Conditions: 10 µM; treatment time 4 h; gentamicin 50 µg/ml

Intracellular bacterial bioluminescence, inactive:
CC(=O)Nc1cccnc1-c1ccc(C(=O)NCCC2=CCCCC2)cc1 106%
Cc1ccc(C2=NC(C)(C)N=C2SCC(=O)Nc2ccccc2)cc1 119%
Cc1nc(NC(c2ccccc2)c2ccccc2)c2nnn(Cc3ccccc3)c2n1 90.7%
O=C(CCC(=O)N1CCc2ccccc21)Nc1noc2ccccc12 60.9%
COCCNc1c(-c2cccc(F)c2)nc2sc3cc(OC)ccc3n12 102%
CCN(CC)Cc1c(O)ccc2c1O/C(=C\c1cccc(OC)c1)C2=O 96.9%
COC(=O)c1ccccc1NC(=O)CSc1nccnc1N1CCSCC1 22.8%
Cc1ccc(C)c(S(=O)(=O)Nc2ccc3nnc(C)n3n2)c1 112%
Cc1ccc2[nH]c3nc(SCC(=O)Nc4ccc(S(=O)(=O)NC5CC5)cc4)nnc3c2c1 122%
CC(=O)Nc1ccc(S(=O)(=O)N2CCN=C2SCc2cccc(F)c2)cc1 114%
Cc1c(C)n(-c2ccc(F)c(F)c2)c2ncnc(NCc3ccc(F)cc3Cl)c12 89.3%
CCc1ccc(-c2noc3c(=O)n(CCC(=O)Nc4cc(C)ccc4C)cnc23)cc1 63.1%
O=C(NC1CCS(=O)(=O)C1)c1cc2n(n1)CCCN(Cc1ccc(F)cc1)C2=O (stereo not given) 104%
COc1cccc(NC(=O)N2CCC(C(=O)NCC3CCCCC3)CC2)c1 111%
COc1cccc(OC)c1C(=O)Nc1nc2c(C)c(C)ccc2s1 99.2%
CCOC(=O)c1cc([N+](=O)[O-])sc1NC(=O)c1ccc(S(=O)(=O)N2CC(C)CC(C)C2)cc1 (stereo not given) 89.5%
Cc1cccc(NC(=O)c2nn(C)c3c2COc2ccccc2-3)n1 85.4%
Cn1c(NC(=O)C2CCCC2)cc(=O)n(C)c1=O 126%
COc1ccc(-c2nsc(SCC(=O)NCc3ccco3)n2)cc1 78.3%
CCS(=O)(=O)Nc1ccc(C2=NN(C(C)=O)C(c3ccc(Cl)o3)C2)cc1 (stereo not given) 97.3%
CCC(C)Sc1nc2c(c(=O)[nH]1)C(c1ccccc1)C1=C(CCCC1=O)N2 (stereo not given) 102%
CCOc1ccc2ccccc2c1C(=O)NCc1n[nH]c(=O)c2ccccc12 96.1%
CCCn1c(=O)c(=O)[nH]c2cc(-c3noc(CCNS(=O)(=O)c4ccc(C)cc4)n3)ccc21 88.6%
Cc1nnc(N2CCC(C(=O)O)CC2)c2nn(-c3ccccc3)c(C)c12 111%
Cc1onc(-c2ccncc2)c1C(=O)N1CCn2c(C)ccc2C1C(C)C (stereo not given) 140%
O=C(NCc1ccc2c(c1)OCO2)c1cnc2ccc(F)cc2c1O 118%
CC(C)(C)c1ncc(C(=O)NC(c2ccccc2)c2cccnc2)cn1 (stereo not given) 111%
COc1ccc2c(c1OC)C(=O)OC2Nc1ccc(CC(=O)O)cc1 (stereo not given) 119%
Cc1cnc(C(=O)Nc2ccc(C(=O)NC3CC3)cc2)cn1 110%
CC(NC(=O)c1ccc2c(=O)[nH]c3c(-c4cccc(C(F)(F)F)c4)nnn3c2c1)c1ccc(F)cc1 (stereo not given) 109%
COc1cccc(NC(=O)N2CCCC(C(=O)NC3CCCCC3C)C2)c1 (stereo not given) 113%
Cc1ccc([N+](=O)[O-])c(OCCSc2nnc3sc4ccccc4n23)c1 96.4%
CCOc1ccc2c(c1)SC(CC(=O)Nc1sc(C)cc1C(=O)OC)C(=O)N2 (stereo not given) 72.6%
CCn1cc(SCC(=O)NCc2ccccc2)c2ccccc21 91.8%
CCOc1ccc2ccccc2c1C(=O)Nc1c2c(nn1-c1ccc(F)cc1)CS(=O)C2 (stereo not given) 85%
COc1ccc(OC)c(CNC(=O)Cn2cccc2-c2nc(-c3ccc(C)cc3)cs2)c1 89.8%
Oc1cccc(C2=NN3C(C2)c2cc(Cl)ccc2OC3c2cccnc2)c1 (stereo not given) 122%
C=CCn1c(=N)c(C(=O)NCCCOC)cc2c(=O)n3cc(C)ccc3nc21 111%
COc1cc(C2NC(=O)NC3=C2C(=O)N(Cc2ccc(F)cc2)C3)cc(OC)c1OC (stereo not given) 92.8%
Cc1ccc(-c2cnc3ccccc3n2)cc1NC(=O)CN1CC(C)OC(C)C1 (stereo not given) 103%
Cc1nc(SCC(=O)c2ccc3c(c2)OCCO3)c2c3c(sc2n1)CCC3 108%
COc1cc(NC(=O)Nc2c(-c3cccnc3)[nH]c3ccc(Cl)cc23)cc(OC)c1 117%
CC1CCN(CC(O)Cn2c3ccccc3c3ccccc32)CC1 (stereo not given) 101%
O=C1CC(c2ccccc2)=NN1c1ccc2ccccc2c1 92.5%
O=C(NC1CCN(C(=O)CNCc2ccc3c(c2)OCO3)CC1)c1ccccc1F 105%
N=C1NC(=O)C(CC(=O)Nc2ccc(N3CCOCC3)cc2)S1 (stereo not given) 97.8%
CC(=O)N1N=C(c2ccc(NS(C)(=O)=O)cc2)CC1c1ccc2c(c1)OCO2 (stereo not given) 95.3%
CCOc1cccc2sc(NNC(=O)c3ccccc3)nc12 65.7%
N#C/C(C(=O)NCCc1ccccc1)=C1/N=C(NC(=O)c2cccs2)c2ccccc21 112%
O=C(NC1CCCCC1)NC1(C(=O)Nc2ccc3c(c2)OCCO3)CCCCC1 137%
COc1cccc(NC(=S)NCCCNc2nc3c(C)cc(C)cc3cc2C#N)c1 90.5%
O=C(N/N=C/c1cc([N+](=O)[O-])ccc1O)c1ccc([N+](=O)[O-])cc1 107%
C=C(C)Cn1c(SCCN2CCOCC2)nc2c1c(=O)[nH]c(=O)n2C 138%
CCc1cnc2c(c1OC)c(=O)n(CC(=O)NCc1ccccc1)c(=O)n2C 105%
Cc1cc(C)cc(/N=c2\oc3c(C)ncc(CO)c3cc2C(N)=O)c1 128%
NC1=NN(c2ccccc2)C(=O)/C1=N/Nc1ccc(-c2ccccc2)cc1 86.9%
O=C(NCc1cccnc1)C(=O)NCC(c1ccco1)N1CCN(c2ccc(F)cc2)CC1 (stereo not given) 76.9%
CC(C)(C)n1nc2c(c1NC(=O)c1ccc(Br)cc1)CS(=O)C2 (stereo not given) 118%
O=C(NCc1cccs1)C1CCCN(C(=O)Nc2ccc(F)cc2)C1 (stereo not given) 85.9%
O=C(Nc1nc2c(s1)CCc1ccccc1-2)C1CC1 97.1%
Clc1ccc(CSc2nnc3ccc(-c4ccncc4)nn23)cc1 68.3%
Cc1sc2c(c1C)c(=O)nc1scc(CC(=O)O)n12 87.7%
O=C(CSc1ncnc2c1sc1nc3ccccc3cc12)N1CCOCC1 98.6%
Cc1cccc(NC(=O)Cn2cc(S(=O)(=O)Cc3ccccc3F)c3ccccc32)n1 116%
COC(=O)c1ccc(CSc2nncc(=O)n2N)o1 90%
COc1cccc2cc(C(=O)Nc3cccc(NC(=O)c4ccccn4)c3)c(=O)oc12 93.2%
Cc1ccccc1C(NC(=O)c1cc2c([nH]c1=O)CCCCC2)c1ccncc1 (stereo not given) 51.3%
CCSc1ccccc1C(=O)N1CCN(c2nc3c(OC)ccc(C)c3s2)CC1 79%
Cc1ccc(S(=O)(=O)c2cnc(SCC(=O)Nc3ccccc3)[nH]c2=O)cc1C 94.3%
CN(C)S(=O)(=O)c1ccc(C(=O)Nc2sc3c(c2-c2nc4ccccc4s2)CCCC3)cc1 102%
CCOc1cc(C(=O)NCC(=O)N/N=C/c2ccccc2)cc(OCC)c1OCC 107%
Cc1cccc2cc(C#N)c(NCCNS(=O)(=O)c3cccc(Cl)c3)nc12 117%
Cc1c(S(=O)(=O)c2ccccc2)nnn1-c1ccccc1 110%
S=C(Nc1ccccc1Cl)NC1CC2CCC(C1)N2Cc1ccccc1 (stereo not given) 83.5%
Cc1nn(S(=O)(=O)c2ccccc2[N+](=O)[O-])c(C)c1Sc1ccccc1 14.8%
O=C(CC1C(=O)Nc2ccccc2N1C(=O)c1cccs1)Nc1ccc(Cl)c(Cl)c1 (stereo not given) 55.5%
O=C1CCc2cc(S(=O)(=O)NCC(c3ccc(F)cc3)N3CCCC3)ccc2N1 (stereo not given) 101%
O=C(Nc1ccccc1F)c1ccnc(N2CCC(C(=O)NCc3ccc(F)cc3)CC2)c1 55.2%
CCCCOc1ccc(-c2cc3c(N4CCC(C(=O)N5CCCC5)CC4)nccn3n2)cc1 110%
CCc1ccccc1NC(=O)CN1N=NC2C(=O)N(c3ccc(F)c(F)c3)C(=O)C21 (stereo not given) 116%
CCOC(=O)c1ccc(NC(=O)CSc2ncnc3c2nnn3Cc2ccccc2)cc1 58%
COc1ccc(NC(=O)c2ccc(Cn3c(=O)[nH]c4ccsc4c3=O)cc2)cc1 26.2%
O=C(Nc1ccccn1)c1cccn2c(-c3ccccc3F)nnc12 95.3%
COc1cccc2sc(N(CCCn3ccnc3)C(=O)c3ccc4c(c3)OCCO4)nc12 66.3%
COc1cccc(NC(=O)CSc2nnc(Cc3ccc(Cl)cc3)c(=O)[nH]2)c1 138%
CC1CCc2c(sc3ncn4c(=O)n(CCC(N)=O)nc4c23)C1 (stereo not given) 99.2%
Cc1cc(C)n(Cc2c(C(=O)NCc3c(C)nn(C)c3C)noc2C)n1 117%
Cc1cc(-c2csc(S(=O)(=O)N3CCN(CCOc4ccc(Cl)cc4)CC3)c2)on1 45.6%
Cn1c(=O)c2c(nc3n2CC(COc2ccc(Cl)cc2)O3)n(C)c1=O (stereo not given) 55.3%
CC(C)c1csc(-c2csc(S(=O)(=O)NC3CCCCC3)c2)n1 15.5%

Arranged by heavy-atom count (ascending): some entries from above
Intracellular bacterial bioluminescence, inactive:
COC(=O)c1ccc(CSc2nncc(=O)n2N)o1 90%
O=C1CC(c2ccccc2)=NN1c1ccc2ccccc2c1 92.5%
O=C1CCc2cc(S(=O)(=O)NCC(c3ccc(F)cc3)N3CCCC3)ccc2N1 (stereo not given) 101%
